{"source": "PubChem BioAssay AID1224826 | NIAID – 2016", "purpose": "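Regulators of Tlr4 signalling leading to Tnf-alpha expression in macrophages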 (primary screen)", "cell system": "RAW264.7 G9 macrophages from mouse bearing reporters for p65 (GFP) and the Tnf promoter (mCherry)", "knock-down reagent": "siRNA pool against mouse genes, 100 nM", "duration": "16 h of LPS stimulation, after 2 days of siRNA transfection", "conditions": "bacterial lipopolysaccharide (Salmonella minnesota R595), 10 ng/ml", "measurement": "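Imaged Tnf reporter mCherry in nuclei, minus background, normalised per plate to the median and expressed as robust z-scores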", "scale": "Tnf reporter robust z-score: higher = stronger Tnf promoter reporter signal after LPS", "hit rule": "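Called active when robust z-score is at most -1.3, matching the median of the Tlr4 knock-down control, or over 3; control wells and wells with under 50 cells never active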", "calls": "active = Tnf reporter clearly lowered or raised; inactive = no clear change in Tnf reporter", "note": "The whole screen tested about 17,000 reagents; shown is a part drawn at random. Over the whole deposit, about 1,110 (6.6%) got an active call. 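Active means lowered or raised reporter signal; replicate intensities are raw and not normalised per plate.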 Unmarked entries are inactive. Further read-outs or replicates are left out here."}
{"target gene": "Ppp1r16a", "Tnf reporter robust z-score": 0.15, "fewer than 50 cells in well": "enough cells in well"}
{"target gene": "Rnf220", "Tnf reporter robust z-score": -1.27, "fewer than 50 cells in well": "enough cells in well"}
{"target gene": "Or10x1", "Tnf reporter robust z-score": 0.45, "fewer than 50 cells in well": "enough cells in well"}
{"target gene": "Or4a2", "Tnf reporter robust z-score": -0.26, "fewer than 50 cells in well": "enough cells in well"}
{"target gene": "Ndufb8", "Tnf reporter robust z-score": -0.12, "fewer than 50 cells in well": "enough cells in well"}

2 entries from above, limited to “Tnf reporter robust z-score”:
Rnf220: -1.27
Or10x1: 0.45

The results go on.
{"target gene": "Arf5", "Tnf reporter robust z-score": 1.17, "fewer than 50 cells in well": "enough cells in well"}
{"target gene": "Edem3", "Tnf reporter robust z-score": -0.28, "fewer than 50 cells in well": "enough cells in well"}
{"target gene": "Sp7", "Tnf reporter robust z-score": -0.5, "fewer than 50 cells in well": "enough cells in well"}
{"target gene": "Ptma", "Tnf reporter robust z-score": -0.17, "fewer than 50 cells in well": "enough cells in well"}
{"target gene": "Sycp1", "Tnf reporter robust z-score": 0.63, "fewer than 50 cells in well": "enough cells in well"}
{"target gene": "Mrc1", "Tnf reporter robust z-score": -0.43, "fewer than 50 cells in well": "enough cells in well"}
{"target gene": "Polr2d", "Tnf reporter robust z-score": "-1.7 (active)", "fewer than 50 cells in well": "enough cells in well"}
{"target gene": "Lrrtm2", "Tnf reporter robust z-score": 0.73, "fewer than 50 cells in well": "enough cells in well"}
{"target gene": "Mre11a", "Tnf reporter robust z-score": -0.96, "fewer than 50 cells in well": "enough cells in well"}
